Assay results

Data taken from PubChem BioAssay AID1053133, deposited by Broad Institute (2014).

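Vaccinia-infected cells with a two-color viral stage reporter; Venus fluorescence read on a plate reader; the cell line is not named here; timing not stated here. The test concentration is not given here. Percent change in Venus reporter signal; lower (more negative) values mean stronger inhibition of that viral stage.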

Values are in %. How 0% and 100% were set is not given here. Common to all entries: measured here: Venus reporter, other viral stage. Part of the compounds only, not a random draw; the main read-out is not listed here.

C[C@H]1CCCCO[C@@H](CN(C)C(=O)NC2CCCCC2)[C@@H](C)CN([C@@H](C)CO)C(=O)c2cc(NS(=O)(=O)c3ccc(Cl)cc3)ccc2O1 read activity change (Venus) -45.87%. For COc1ccc(S(=O)(=O)N(C)C[C@H]2OCCCC[C@@H](C)Oc3ccc(NS(=O)(=O)c4ccc(Cl)cc4)cc3C(=O)N([C@H](C)CO)C[C@H]2C)cc1 the result was activity change (Venus) -19.25%. COCC#Cc1ccc2c(c1)O[C@@H](CN(C)Cc1ccc3c(c1)OCO3)[C@H](C)CN([C@H](C)CO)S2(=O)=O read activity change (Venus) -54.37%. CC(C)CC#Cc1ccc2c(c1)O[C@@H](CN(C)C(=O)Nc1ccccc1F)[C@H](C)CN([C@H](C)CO)S2(=O)=O read activity change (Venus) -39.83%. COc1cccc(C#Cc2ccc([C@H]3[C@@H](CO)N4C(=O)CN(C(=O)Cc5ccccc5)C[C@@H]34)cc2)c1 read activity change (Venus) -43.95%. For COc1ccc(S(=O)(=O)Nc2ccc3c(c2)C(=O)N([C@H](C)CO)C[C@H](C)[C@H](CN(C)Cc2ccc(Cl)c(Cl)c2)OCCCC[C@H](C)O3)cc1 the result was activity change (Venus) -57.59%. Result for C[C@H](CO)N1C[C@H](C)[C@H](CN(C)Cc2ccc(Cl)c(Cl)c2)Oc2ccc(NC(=O)Nc3ccc(C(F)(F)F)cc3)cc2C1=O was activity change (Venus) -34.26%. Result for C[C@H](CO)N1C[C@H](C)[C@@H](CN(C)Cc2ccc(C(F)(F)F)cc2)OCCCC[C@H](C)Oc2ccc(NS(=O)(=O)c3ccc(Cl)cc3)cc2C1=O was activity change (Venus) -62.72%.

COc1ccc(S(=O)(=O)N(C)C[C@@H]2OCCCC[C@@H](C)Oc3ccc(NS(=O)(=O)c4ccc(Cl)cc4)cc3C(=O)N([C@@H](C)CO)C[C@H]2C)cc1 gave activity change (Venus) -36.24%. With C[C@@H]1CN([C@@H](C)CO)C(=O)c2cc(NC(=O)Nc3ccc(C(F)(F)F)cc3)ccc2O[C@@H]1CN(C)C(=O)Nc1ccc(C(F)(F)F)cc1 the assay gave activity change (Venus) -31.85%. With Cc1ccc(S(=O)(=O)N(C)C[C@@H]2Oc3ccc(NC(=O)Nc4ccc(C(F)(F)F)cc4)cc3CC(=O)N([C@@H](C)CO)C[C@@H]2C)cc1 the assay gave activity change (Venus) -30.31%. With C[C@@H]1CN([C@@H](C)CO)C(=O)c2cc(C#Cc3cccc(F)c3)cnc2O[C@H]1CN(C)C(=O)C1CCCCC1 the assay gave activity change (Venus) -59.16%. N#C[C@@H]1[C@H](c2ccc(-c3ccccc3F)cc2)[C@H](CO)N1C(=O)C1CCC1 gave activity change (Venus) -26.44%. Result for CN(C)c1ccc2c(c1)[C@@H]1C[C@@H](CC(=O)NCc3ccc(Oc4ccccc4)cc3)O[C@H](CO)[C@@H]1O2 was activity change (Venus) -54.48%. O=C(C[C@@H]1CC[C@@H]2[C@H](COC[C@@H](O)CN2S(=O)(=O)c2ccccc2)O1)NCc1ccc(-c2ccccc2)cc1 gave activity change (Venus) -48.57%. Cc1ccc(S(=O)(=O)N(C)C[C@@H]2OCCCC[C@H](C)Oc3ccc(NS(=O)(=O)c4cccs4)cc3C(=O)N([C@H](C)CO)C[C@H]2C)cc1 read activity change (Venus) -44.36%.

For COc1cccc(C#Cc2ccc3c(c2)O[C@H](CN(C)C(C)=O)[C@@H](C)CN([C@H](C)CO)S3(=O)=O)c1 the result was activity change (Venus) -21.23%. CCCC#Cc1ccc2c(c1)O[C@H](CN(C)S(=O)(=O)c1cccc(F)c1)[C@@H](C)CN([C@@H](C)CO)S2(=O)=O gave activity change (Venus) -29.83%. For Cc1cc(C(=O)Nc2cccc3c2O[C@@H](CN(C)Cc2ccc(Cl)c(Cl)c2)[C@H](C)CN([C@H](C)CO)C3=O)n(C)n1 the result was activity change (Venus) -30.76%. COc1cccc(C#Cc2ccc3c(c2)O[C@H](CN(C)C)[C@H](C)CN([C@@H](C)CO)S3(=O)=O)c1 read activity change (Venus) -27.29%. COc1ccccc1NC(=O)N1CC(=O)N2[C@@H](CO)[C@H](c3ccc(C#Cc4ccccc4)cc3)[C@@H]2C1 gave activity change (Venus) -27.18%. Result for C[C@@H]1CN([C@@H](C)CO)C(=O)c2cccc(NC(=O)c3nc4ccccc4s3)c2O[C@@H]1CN(C)C(=O)Nc1ccccc1 was activity change (Venus) -40.7%. For C[C@H](NC(=O)N(C)C[C@H]1OCc2ccccc2-c2c(n(C)c3ccccc23)C(=O)N([C@@H](C)CO)C[C@@H]1C)c1ccccc1 the result was activity change (Venus) -67.93%. C[C@@H]1CN([C@H](C)CO)C(=O)c2cccc(NC(=O)Nc3ccc(F)cc3)c2O[C@@H]1CN(C)C(=O)Nc1ccc(C(F)(F)F)cc1 gave activity change (Venus) -29.07%.

For OC[C@@H]1[C@@H](c2ccc(-c3cccc(F)c3)cc2)[C@H]2CN(CCC(F)(F)F)CCCCN12 the result was activity change (Venus) -52.74%. C[C@H]1CN([C@@H](C)CO)C(=O)Cc2cc(NC(=O)Nc3ccc(C(F)(F)F)cc3)ccc2O[C@@H]1CN(C)Cc1ccccc1 read activity change (Venus) -23.37%. With O=S(=O)(Cc1ccccc1)N1CCCCN2[C@H](CO)[C@@H](c3ccc(-c4ccccc4)cc3)[C@H]2C1 the assay gave activity change (Venus) -27.99%. Result for CC(C)CC#Cc1ccc2c(c1)O[C@H](CN(C)S(=O)(=O)c1ccc(F)cc1)[C@@H](C)CN([C@H](C)CO)S2(=O)=O was activity change (Venus) -29.77%. Result for C[C@H]1CCCCO[C@H](CN(C)Cc2ccc(Cl)c(Cl)c2)[C@@H](C)CN([C@@H](C)CO)C(=O)c2cc(NS(=O)(=O)c3ccc(F)cc3)ccc2O1 was activity change (Venus) -66.83%.

The last 4 entries again:

Compound	activity change (Venus) (%)
C[C@H]1CN([C@@H](C)CO)C(=O)Cc2cc(NC(=O)Nc3ccc(C(F)(F)F)cc3)ccc2O[C@@H]1CN(C)Cc1ccccc1	-23.37
O=S(=O)(Cc1ccccc1)N1CCCCN2[C@H](CO)[C@@H](c3ccc(-c4ccccc4)cc3)[C@H]2C1	-27.99
CC(C)CC#Cc1ccc2c(c1)O[C@H](CN(C)S(=O)(=O)c1ccc(F)cc1)[C@@H](C)CN([C@H](C)CO)S2(=O)=O	-29.77
C[C@H]1CCCCO[C@H](CN(C)Cc2ccc(Cl)c(Cl)c2)[C@@H](C)CN([C@@H](C)CO)C(=O)c2cc(NS(=O)(=O)c3ccc(F)cc3)ccc2O1	-66.83